Measured values as given in article PMC7842947.
No constants are given. Whether binding was seen depends on the method and setting. Some results given as binding are weak or reduced against the parent protein; the word gives no strength.

Chains of the proteins cited; added tags and fusions are not shown. Lines headed by an entry give the natural chain unless they say otherwise; changes in a name come on top. Residues count along the entry.
UniProt Q6UVK1, residues 30-2322: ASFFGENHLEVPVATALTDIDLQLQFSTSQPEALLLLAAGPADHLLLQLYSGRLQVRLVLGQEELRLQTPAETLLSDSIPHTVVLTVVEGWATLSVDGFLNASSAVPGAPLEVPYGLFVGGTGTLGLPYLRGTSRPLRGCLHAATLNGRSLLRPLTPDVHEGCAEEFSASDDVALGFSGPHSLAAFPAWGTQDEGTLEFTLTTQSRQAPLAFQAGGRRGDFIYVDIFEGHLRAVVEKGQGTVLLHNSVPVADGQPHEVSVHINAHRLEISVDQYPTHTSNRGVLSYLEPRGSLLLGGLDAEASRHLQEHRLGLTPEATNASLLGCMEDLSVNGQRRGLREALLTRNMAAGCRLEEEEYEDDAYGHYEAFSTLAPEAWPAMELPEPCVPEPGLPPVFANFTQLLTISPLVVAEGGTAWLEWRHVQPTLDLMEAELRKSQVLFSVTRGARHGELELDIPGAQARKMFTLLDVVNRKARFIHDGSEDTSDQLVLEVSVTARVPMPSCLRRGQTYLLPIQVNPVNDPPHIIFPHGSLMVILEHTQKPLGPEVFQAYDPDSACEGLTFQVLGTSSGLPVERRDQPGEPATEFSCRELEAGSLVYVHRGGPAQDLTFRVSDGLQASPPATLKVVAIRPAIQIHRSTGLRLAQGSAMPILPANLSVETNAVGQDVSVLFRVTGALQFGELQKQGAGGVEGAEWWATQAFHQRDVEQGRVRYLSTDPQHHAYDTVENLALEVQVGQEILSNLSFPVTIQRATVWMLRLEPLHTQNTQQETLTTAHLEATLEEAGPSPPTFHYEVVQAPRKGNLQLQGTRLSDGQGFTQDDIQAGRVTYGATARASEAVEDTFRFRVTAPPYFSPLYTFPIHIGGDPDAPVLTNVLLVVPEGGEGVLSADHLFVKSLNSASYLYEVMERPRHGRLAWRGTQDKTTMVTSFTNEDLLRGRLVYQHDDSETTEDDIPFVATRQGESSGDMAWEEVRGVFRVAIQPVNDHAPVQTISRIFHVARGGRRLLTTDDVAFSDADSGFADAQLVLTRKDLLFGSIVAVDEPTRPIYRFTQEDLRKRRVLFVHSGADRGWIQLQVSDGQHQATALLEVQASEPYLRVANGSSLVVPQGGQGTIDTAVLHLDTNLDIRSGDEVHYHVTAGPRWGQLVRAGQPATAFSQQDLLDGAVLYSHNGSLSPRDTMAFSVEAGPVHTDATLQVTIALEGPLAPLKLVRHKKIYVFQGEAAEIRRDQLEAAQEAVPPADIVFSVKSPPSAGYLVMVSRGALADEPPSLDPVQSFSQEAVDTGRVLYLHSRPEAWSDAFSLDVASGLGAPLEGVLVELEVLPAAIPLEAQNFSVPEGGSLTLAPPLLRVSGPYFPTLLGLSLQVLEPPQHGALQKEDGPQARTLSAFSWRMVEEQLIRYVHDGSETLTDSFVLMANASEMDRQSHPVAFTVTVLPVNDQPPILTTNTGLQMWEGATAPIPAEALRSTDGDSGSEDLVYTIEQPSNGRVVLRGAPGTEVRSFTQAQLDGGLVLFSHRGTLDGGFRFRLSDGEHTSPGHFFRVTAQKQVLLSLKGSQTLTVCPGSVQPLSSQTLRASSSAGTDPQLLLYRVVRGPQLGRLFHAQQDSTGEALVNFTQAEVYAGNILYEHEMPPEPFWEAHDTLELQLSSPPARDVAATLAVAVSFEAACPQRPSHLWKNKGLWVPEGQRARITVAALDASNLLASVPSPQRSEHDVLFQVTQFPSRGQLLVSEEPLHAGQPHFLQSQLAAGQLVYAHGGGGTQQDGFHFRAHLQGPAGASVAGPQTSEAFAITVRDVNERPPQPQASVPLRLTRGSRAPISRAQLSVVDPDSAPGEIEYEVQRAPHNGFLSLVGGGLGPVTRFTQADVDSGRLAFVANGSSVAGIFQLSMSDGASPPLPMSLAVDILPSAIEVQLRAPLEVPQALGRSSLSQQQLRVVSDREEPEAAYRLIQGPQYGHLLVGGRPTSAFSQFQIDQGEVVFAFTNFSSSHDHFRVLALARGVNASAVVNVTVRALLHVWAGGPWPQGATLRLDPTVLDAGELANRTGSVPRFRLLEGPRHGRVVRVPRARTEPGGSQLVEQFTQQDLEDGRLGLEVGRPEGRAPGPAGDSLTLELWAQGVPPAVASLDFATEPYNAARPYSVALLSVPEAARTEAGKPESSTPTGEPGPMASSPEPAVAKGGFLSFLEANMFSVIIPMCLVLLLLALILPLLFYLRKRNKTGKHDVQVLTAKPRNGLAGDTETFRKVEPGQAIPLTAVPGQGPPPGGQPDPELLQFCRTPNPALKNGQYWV
UniProt Q189K3: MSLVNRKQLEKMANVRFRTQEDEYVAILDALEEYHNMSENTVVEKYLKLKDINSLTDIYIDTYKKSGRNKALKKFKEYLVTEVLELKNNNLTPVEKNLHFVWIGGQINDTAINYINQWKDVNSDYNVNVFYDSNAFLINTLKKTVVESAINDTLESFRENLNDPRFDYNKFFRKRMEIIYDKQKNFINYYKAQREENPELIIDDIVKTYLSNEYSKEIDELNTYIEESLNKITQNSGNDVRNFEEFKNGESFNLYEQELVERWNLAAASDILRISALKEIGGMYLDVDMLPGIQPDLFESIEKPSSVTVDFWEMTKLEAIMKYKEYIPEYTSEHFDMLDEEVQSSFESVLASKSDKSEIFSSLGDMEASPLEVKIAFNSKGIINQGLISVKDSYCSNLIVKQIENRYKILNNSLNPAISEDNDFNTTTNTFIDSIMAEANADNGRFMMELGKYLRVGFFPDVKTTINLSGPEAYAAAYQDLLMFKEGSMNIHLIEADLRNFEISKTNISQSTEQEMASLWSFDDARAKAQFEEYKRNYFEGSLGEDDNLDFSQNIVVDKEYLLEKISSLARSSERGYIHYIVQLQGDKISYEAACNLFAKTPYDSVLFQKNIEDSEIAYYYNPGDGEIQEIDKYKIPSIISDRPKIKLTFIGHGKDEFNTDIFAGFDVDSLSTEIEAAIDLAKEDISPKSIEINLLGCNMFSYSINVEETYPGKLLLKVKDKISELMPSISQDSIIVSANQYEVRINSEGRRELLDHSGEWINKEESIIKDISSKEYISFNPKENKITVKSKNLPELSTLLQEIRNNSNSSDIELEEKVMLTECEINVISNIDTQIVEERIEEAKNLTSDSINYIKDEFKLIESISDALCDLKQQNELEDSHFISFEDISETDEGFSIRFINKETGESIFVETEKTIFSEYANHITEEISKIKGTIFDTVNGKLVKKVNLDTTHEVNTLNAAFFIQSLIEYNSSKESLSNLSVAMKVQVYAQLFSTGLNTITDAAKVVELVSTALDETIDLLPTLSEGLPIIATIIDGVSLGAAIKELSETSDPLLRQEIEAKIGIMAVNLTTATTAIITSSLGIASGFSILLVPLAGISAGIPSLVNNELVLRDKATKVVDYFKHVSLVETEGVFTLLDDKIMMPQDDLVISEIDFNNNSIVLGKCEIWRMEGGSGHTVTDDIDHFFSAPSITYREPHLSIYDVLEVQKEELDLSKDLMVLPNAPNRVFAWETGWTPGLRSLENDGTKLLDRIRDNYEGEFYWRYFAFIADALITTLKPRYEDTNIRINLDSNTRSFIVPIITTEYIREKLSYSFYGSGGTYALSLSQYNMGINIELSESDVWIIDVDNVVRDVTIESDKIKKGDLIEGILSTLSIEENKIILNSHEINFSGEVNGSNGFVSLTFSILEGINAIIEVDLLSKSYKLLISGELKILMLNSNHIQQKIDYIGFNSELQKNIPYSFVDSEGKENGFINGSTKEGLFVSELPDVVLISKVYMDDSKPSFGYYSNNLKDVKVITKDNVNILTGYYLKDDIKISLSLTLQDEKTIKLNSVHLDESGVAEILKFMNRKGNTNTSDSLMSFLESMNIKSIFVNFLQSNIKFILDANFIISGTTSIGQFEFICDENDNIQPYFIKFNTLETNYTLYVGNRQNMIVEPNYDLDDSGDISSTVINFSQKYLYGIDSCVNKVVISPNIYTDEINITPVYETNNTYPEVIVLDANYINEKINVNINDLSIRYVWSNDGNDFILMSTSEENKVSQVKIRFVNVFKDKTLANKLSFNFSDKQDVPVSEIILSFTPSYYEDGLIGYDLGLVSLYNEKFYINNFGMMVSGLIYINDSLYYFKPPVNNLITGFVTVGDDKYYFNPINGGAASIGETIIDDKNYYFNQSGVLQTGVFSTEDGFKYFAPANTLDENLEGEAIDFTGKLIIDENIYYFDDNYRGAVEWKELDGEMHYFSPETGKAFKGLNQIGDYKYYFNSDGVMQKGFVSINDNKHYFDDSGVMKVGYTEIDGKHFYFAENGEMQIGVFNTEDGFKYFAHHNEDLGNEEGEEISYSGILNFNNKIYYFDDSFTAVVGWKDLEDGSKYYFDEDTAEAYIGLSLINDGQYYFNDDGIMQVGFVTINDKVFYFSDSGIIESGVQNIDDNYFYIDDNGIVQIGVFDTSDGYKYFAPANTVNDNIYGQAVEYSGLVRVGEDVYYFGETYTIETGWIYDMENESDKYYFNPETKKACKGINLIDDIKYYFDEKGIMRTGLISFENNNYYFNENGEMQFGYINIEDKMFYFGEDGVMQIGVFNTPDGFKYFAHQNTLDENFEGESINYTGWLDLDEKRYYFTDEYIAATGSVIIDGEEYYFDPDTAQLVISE

Molecular target: chondroitin sulfate proteoglycan 4 (CSPG4), endogenous on HeLa cells (human (endogenous in HeLa)) (UniProt Q6UVK1)
Experiment: cell-surface binding assay with immunoblot; only the binder purified

| Substance | binding |
| --- | --- |
| TcdB1^1-2098 (from UniProt Q189K3 1-2098) (domain or fragment) | binds |
| TcdB1^544-2098 (from UniProt Q189K3 544-2098) (domain or fragment) | no binding |
